# Experimental data reported in article PMC5509711.
# Results are given in words; binding and its absence hold for the method and conditions named. A result given as binding can be weak or reduced; the word gives no strength. Tags and fused reporters may be left off the sequences shown. For some of these results: Binding seen in cells or lysates may run through a third protein.
# Tests used:
# [1] = molecular target: GAL4 AD fusion of DOG1 (β-isoform, Cvi) (Arabidopsis (Cvi accession)); experiment: two-hybrid; yeast GAL4 system, strain PJ69-4alpha; pACT2 (GAL4 AD) DOG1 with pAS2 (GAL4 BD) phosphatases; growth on -LWH with 5 mM 3-aminotriazole, 30 °C, 7 days; β-galactosidase filter assay
# [2] = molecular target: DOG1 beta fused to the N-terminal half of YFP (Arabidopsis); experiment: split reporter; BiFC in epidermis cells of Nicotiana benthamiana leaves; DOG1 fused to the N-terminal half and the phosphatases to the C-terminal half of YFP; confocal microscopy 48 h after agro-infiltration
binding [1],binding [2],Binder
binds,,"GAL4 BD fusion of AHG1 (enzyme, UniProt Q9FLI3 1-416) MTEIYRTISTGRGDDVSPTKCRERRRRRIEMRRQAAVFGEPSSSRNRDRTDMEVYSSFDVPLRKQARRSEIGGLPADIGGFLAPPAASSCQKSEAPVWKGEETEDEPLYGIVSVMGRSRKMEDSVTVKPNLCKPEVNRQRPVHFFAVYDGHGGSQVSTLCSTTMHTFVKEELEQNLEEEEEGSENDVVERKWRGVMKRSFKRMDEMATSTCVCGTSVPLCNCDPREAAISGSTAVTAVLTHDHIIVANTGDSRAVLCRNGMAIPLSNDHKPDRPDERARIEAAGGRVLVVDGARVEGILATSRAIGDRYLKPMVAWEPEVTFMRRESGDECLVLASDGLWDVLSSQLACDIARFCLREETPSSLDLNRMAQEDDNDGEQNPSRSVLAATLLTRLALGRQSSDNISVVVIDLKNSSQ"
,binds,"AHG1 fused to the C-terminal half of YFP (enzyme, UniProt Q9FLI3 1-416) MTEIYRTISTGRGDDVSPTKCRERRRRRIEMRRQAAVFGEPSSSRNRDRTDMEVYSSFDVPLRKQARRSEIGGLPADIGGFLAPPAASSCQKSEAPVWKGEETEDEPLYGIVSVMGRSRKMEDSVTVKPNLCKPEVNRQRPVHFFAVYDGHGGSQVSTLCSTTMHTFVKEELEQNLEEEEEGSENDVVERKWRGVMKRSFKRMDEMATSTCVCGTSVPLCNCDPREAAISGSTAVTAVLTHDHIIVANTGDSRAVLCRNGMAIPLSNDHKPDRPDERARIEAAGGRVLVVDGARVEGILATSRAIGDRYLKPMVAWEPEVTFMRRESGDECLVLASDGLWDVLSSQLACDIARFCLREETPSSLDLNRMAQEDDNDGEQNPSRSVLAATLLTRLALGRQSSDNISVVVIDLKNSSQ"
,binds,"PDF1 fused to the C-terminal half of YFP (protein, UniProt Q38950 1-587) MSMIDEPLYPIAVLIDELKNDDIQLRLNSIRRLSTIARALGEERTRKELIPFLSENNDDDDEVLLAMAEELGVFIPYVGGVEYAHVLLPPLETLSTVEETCVREKAVESLCRVGSQMRESDLVDHFISLVKRLAAGEWFTARVSACGVFHIAYPSAPDMLKTELRSLYTQLCQDDMPMVRRAAATNLGKFAATVESAHLKTDVMSMFEDLTQDDQDSVRLLAVEGCAALGKLLEPQDCVQHILPVIVNFSQDKSWRVRYMVANQLYELCEAVGPEPTRTELVPAYVRLLRDNEAEVRIAAAGKVTKFCRILNPEIAIQHILPCVKELSSDSSQHVRSALASVIMGMAPVLGKDATIEHLLPIFLSLLKDEFPDVRLNIISKLDQVNQVIGIDLLSQSLLPAIVELAEDRHWRVRLAIIEYIPLLASQLGVGFFDDKLGALCMQWLQDKVHSIRDAAANNLKRLAEEFGPEWAMQHIVPQVLEMVNNPHYLYRMTILRAVSLLAPVMGSEITCSKLLPVVMTASKDRVPNIKFNVAKVLQSLIPIVDQSVVEKTIRPGLVELSEDPDVDVRFFANQALQSIDNVMMSS"
binds weakly,,"GAL4 BD fusion of PDF1 (protein, UniProt Q38950 1-587) MSMIDEPLYPIAVLIDELKNDDIQLRLNSIRRLSTIARALGEERTRKELIPFLSENNDDDDEVLLAMAEELGVFIPYVGGVEYAHVLLPPLETLSTVEETCVREKAVESLCRVGSQMRESDLVDHFISLVKRLAAGEWFTARVSACGVFHIAYPSAPDMLKTELRSLYTQLCQDDMPMVRRAAATNLGKFAATVESAHLKTDVMSMFEDLTQDDQDSVRLLAVEGCAALGKLLEPQDCVQHILPVIVNFSQDKSWRVRYMVANQLYELCEAVGPEPTRTELVPAYVRLLRDNEAEVRIAAAGKVTKFCRILNPEIAIQHILPCVKELSSDSSQHVRSALASVIMGMAPVLGKDATIEHLLPIFLSLLKDEFPDVRLNIISKLDQVNQVIGIDLLSQSLLPAIVELAEDRHWRVRLAIIEYIPLLASQLGVGFFDDKLGALCMQWLQDKVHSIRDAAANNLKRLAEEFGPEWAMQHIVPQVLEMVNNPHYLYRMTILRAVSLLAPVMGSEITCSKLLPVVMTASKDRVPNIKFNVAKVLQSLIPIVDQSVVEKTIRPGLVELSEDPDVDVRFFANQALQSIDNVMMSS"
